Data on 21 compounds can be found in PubChem BioAssay AID212 (DTP/NCI, 2004).

The list is a part of this screen's results and no random one: it gathers tests that were run many times, whatever their T/C, doses with no T/C, and many T/C values between a quarter and a half above the control. Further doses and runs are listed elsewhere. T/C is the treated group as % of the vehicle group. Schedules are NCI's codes, taken here to give the interval after Q, in days (D) or hours (H), and the number of doses after X. Some T/C values are followed by the survivors on the day toxicity was checked, most often the fifth; where none is given, no animal had died by that day. Some doses were run more than once; the results are listed from low to high. Some entries give survivors of the animals treated and no T/C: the source files T/C as zero there, which appears to mark a toxic dose or a test without result, not a measured value. Survivors were counted at the toxicity check, usually on the fifth day, unless a day is given; later deaths do not show.

In this assay the test system is BDF1 mice, colon carcinoma 38 sc, T/C %. Briefly: NCI In Vivo Anticancer Drug Screen. Data for tumor model Colon Carcinoma 38 (subcutaneous) in B6D2F1 (BDF1) mice. Particulars: T/C endpoint: median tumor weight (est.), higher T/C = larger tumour; for T/C: evaluated on day 20. An outline of the steps: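 Transplantable tumor in mice; compound-treated vs vehicle-dosed controls. Measured survival or tumor size; value = T ÷ C.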

Where [1] appears, read: dose: 12.5 mg/kg/injection, schedule: Q07DX002 (ip), vehicle: saline with Tween-80.
Setting [2] is: dose: 50.0 mg/kg/injection, schedule: Q07DX002 (ip), vehicle: saline with Tween-80.
The mark [3] stands for this setting: dose: 100.0 mg/kg/injection, schedule: Q07DX002 (ip), vehicle: saline with Tween-80.
Setting [4] is: dose: 200.0 mg/kg/injection, schedule: Q07DX002 (ip), vehicle: saline with Tween-80.
The mark [5] stands for this setting: dose: 25.0 mg/kg/injection, schedule: Q07DX002 (ip), vehicle: saline with Tween-80.
Where [6] appears, read: dose: 400.0 mg/kg/injection, schedule: Q07DX002 (ip), vehicle: saline with Tween-80.
Where [7] appears, read: dose: 200.0 mg/kg/injection, schedule: Q07DX002 (ip), vehicle: Klucel (hydroxypropylcellulose) (HPC).
Where [8] appears, read: dose: 100.0 mg/kg/injection, schedule: Q07DX002 (ip), vehicle: Klucel (hydroxypropylcellulose) (HPC).
[9] abbreviates: dose: 400.0 mg/kg/injection, schedule: Q07DX002 (ip), vehicle: Klucel (hydroxypropylcellulose) (HPC).

`CCC1CCCCN1C(=S)N/N=C(\C)c1ccccn1` (stereo not given): the T/C under setting [1] was 135 % of control. Besides, the survivor count reads like this: under setting [2], 6 of 10 on day 20; under setting [3], 2 of 10 on day 20; under setting [4], 0 of 10 on day 20.
As for `CC(=O)Nc1ccc(O)c(O)c1`, the T/C runs as follows: under setting [5], 128 [9 of 10 alive on day 20] and 149 % of control; under setting [2], 128 % of control; under setting [3], 139 % of control; under setting [4], 148 % of control; (dose: 800.0 mg/kg/injection, schedule: Q07DX002 (ip), vehicle: saline with Tween-80) 127 % of control.
On to `CCCCCc1cc(/C=C2/N=C(c3ccc[nH]3)C=C2OC)[nH]c1C`, for which the T/C (dose: 1.0 mg/kg/injection, schedule: Q07DX002 (ip), vehicle: saline with Tween-80) was 126 % of control.
For `Cc1oc2c(C)c3oc(=O)cc(C)c3cc2c1CCl`, the survivor count is, setting by setting: under setting [4], 5 of 10 on day 20; under setting [6], 0 of 10 on day 20.
Take `Nc1nccc2c1ncn2C1OC(CO)C(O)C1O` (stereo not given): the T/C reads like this: (dose: 4.6 mg/kg/injection, schedule: Q03HX024 (ip), vehicle: saline with Tween-80) 129 % of control; (dose: 9.3 mg/kg/injection, schedule: Q03HX024 (ip), vehicle: saline with Tween-80) 133 % of control; (dose: 37.5 mg/kg/injection, schedule: Q03HX024 (ip), vehicle: saline with Tween-80) 126 and 137 % of control [8 of 10 alive]; (dose: 75.0 mg/kg/injection, schedule: Q03HX024 (ip), vehicle: saline with Tween-80) 128 % of control [7 of 10 alive].
With `CC1CN=C(c2ccc(NC(=O)c3ccc(C(=O)Nc4ccc(C5=NCC(C)N5)cc4)cc3)cc2)N1` (stereo not given), the T/C (dose: 200.0 mg/kg/injection, schedule: Q07DX003 (ip), vehicle: Klucel (hydroxypropylcellulose) (HPC)) was 126 % of control.
With `C[CH2][Ge]1([CH2]C)[CH2]CC2(CCN(CCCN(C)C)C2)C[CH2]1`, the T/C (dose: 12.5 mg/kg/injection, schedule: Q07DX002 (ip), vehicle: saline) is 128 % of control. The survivor count (dose: 100.0 mg/kg/injection, schedule: Q07DX002 (ip), vehicle: saline) is 5 of 10.
In the case of `N#Cc1c(N)[nH]c2ccc(Sc3ccccc3)cc12`, the survivor count under setting [4] is 6 of 10 on day 20.
Turning to `CN1CCc2c(c3ccccc3c3ccccc23)C1`, the T/C (dose: 25.0 mg/kg/injection, schedule: Q07DX002 (ip), vehicle: Klucel (hydroxypropylcellulose) (HPC)) was 131 % of control. For the same compound, the survivor count under setting [7] is given as 6 of 10 on day 20.
Take `N#CC(OC1OC(COC2OC(CO)C(O)C(O)C2O)C(O)C(O)C1O)c1ccccc1` (stereo not given): where the note is “dose: 800.0 mg/kg/injection, schedule: Q07DX002 (ip), vehicle: water”, the T/C was 134 % of control.
Take `O=NN(CCCl)C(=O)NC1OC(CO)C(O)C(O)C1O` (stereo not given): the survivor count runs as follows: (dose: 32.0 mg/kg/injection, schedule: Q07DX002 (ip), vehicle: saline) 3 of 10 on day 20 and 4 of 10 on day 20; (dose: 40.0 mg/kg/injection, schedule: Q07DX002 (ip), vehicle: saline) 5 of 10 on day 20; (dose: 64.0 mg/kg/injection, schedule: Q07DX002 (ip), vehicle: saline) 0 of 10 on day 20; (dose: 128.0 mg/kg/injection, schedule: Q07DX002 (ip), vehicle: saline) 0 of 10 on day 20.
With `CC1=C(/C=C/C(C)=C/C=C/C(C)=C/C=O)C(C)(C)CCC1`, the T/C under setting [2] was 125 % of control [9 of 10 alive on day 20]. In addition, the survivor count is reported as 2 of 10 on day 20 under setting [4] and 1 of 10 on day 20 under setting [6].
`CCN1/C(=C/C=C/C=C\C=C\c2sc3ccc4ccccc4c3[n+]2CC)Sc2ccc3ccccc3c21`: under “dose: 1.25 mg/kg/injection, schedule: Q07DX002 (ip), vehicle: saline with Tween-80”, the T/C was 149 % of control [9 of 10 alive on day 20]. The survivor count (dose: 40.0 mg/kg/injection, schedule: Q07DX002 (ip), vehicle: saline with Tween-80) was 5 of 10 on day 20.
Turning to `O=NN(CCF)C(=O)NC1CCCCC1`, the survivor count reads like this: (dose: 50.0 mg/kg/injection, schedule: Q07DX002 (ip), vehicle: Klucel (hydroxypropylcellulose) (HPC)) 2 of 10 on day 20; under setting [8], 0 of 10 on day 20; under setting [7], 0 of 10 on day 20; under setting [9], 0 of 10 on day 20.
Take `COc1cc(NS(C)(=O)=O)ccc1Nc1c2ccccc2nc2ccccc12`: for the setting “dose: 1.0 mg/kg/injection, schedule: Q07DX002 (ip), vehicle: other”, the T/C is 138 % of control. The survivor count is, setting by setting: (dose: 16.0 mg/kg/injection, schedule: Q07DX002 (ip), vehicle: other) 4 of 10 and 5 of 10; (dose: 16.0 mg/kg/injection, schedule: Q07DX003 (ip), vehicle: other) 2 of 10.
As for `O=C(O)CC(NC(=O)CP(=O)(O)O)C(=O)O.[NH-]C1CCCCC1[NH-].[Pt+2]` (stereo not given), the survivor count (dose: 50.0 mg/kg/injection, schedule: Q07DX002 (ip), vehicle: dextrose) is on record as 3 of 10 on day 20.
As to `CC1OC(=O)C(C(C)C)NC(=O)C(C(C)C)OC(=O)C(C(C)C)NC(=O)C(C)OC(=O)C(C(C)C)NC(=O)C(C(C)C)OC(=O)C(C(C)C)NC(=O)C(C)OC(=O)C(C(C)C)NC(=O)C(C(C)C)OC(=O)C(C(C)C)NC1=O` (stereo not given), where the note is “dose: 5.0 mg/kg/injection, schedule: Q07DX003 (ip), vehicle: saline with Tween-80”, the T/C was 125 % of control. Moreover, the survivor count (dose: 40.0 mg/kg/injection, schedule: Q07DX003 (ip), vehicle: saline with Tween-80) was 1 of 10.
Regarding `CSc1cc(C)[o+]c(C)c1`, the T/C (dose: 12.5 mg/kg/injection, schedule: Q07DX002 (ip), vehicle: Klucel (hydroxypropylcellulose) (HPC)) was 128 % of control and the T/C under setting [8] was 135 % of control. Further, the survivor count under setting [9] was 0 of 10 on day 20.
On to `CCS/C(SC)=C(/c1ccccc1)[P+](c1ccccc1)(c1ccccc1)c1ccccc1`, for which the survivor count (dose: 6.0 mg/kg/injection, schedule: Q07DX002 (ip), vehicle: Klucel (hydroxypropylcellulose) (HPC)) is listed as 2 of 10 on day 20; the survivor count (dose: 12.0 mg/kg/injection, schedule: Q07DX002 (ip), vehicle: Klucel (hydroxypropylcellulose) (HPC)) is 0 of 10 on day 20; the survivor count (dose: 24.0 mg/kg/injection, schedule: Q07DX002 (ip), vehicle: Klucel (hydroxypropylcellulose) (HPC)) is on record as 0 of 10 on day 20.
As to `Cc1ccc(NC(=O)Oc2ccc(Br)cc2Br)c([N+](=O)[O-])c1`, the T/C under setting [6] is 134 % of control [8 of 10 alive].
Regarding `Cc1cc(NCCCCCCCNc2cc(C)nc3cc(N)ccc23)c2ccc(N)cc2n1`, the T/C was 93 [9 of 10 alive on day 20], 104, 112, 132 % of control (dose: 3.12 mg/kg/injection, schedule: Q07DX002 (ip), vehicle: saline with Tween-80); 84, 95, 101, 121 % of control (dose: 6.25 mg/kg/injection, schedule: Q07DX002 (ip), vehicle: saline with Tween-80); 66 [9 of 10 alive], 73, 87, 139 % of control under setting [1]; 22 [9 of 10 alive], 58 [9 of 10 alive on day 20], 63 [9 of 10 alive on day 20], 95 % of control under setting [5]. The survivor count under setting [2] is reported as 1 of 10 on day 20, 5 of 10 on day 20, 6 of 10 on day 20 and the survivor count under setting [3] is listed as 0 of 10 on day 20.
